# The other results are listed elsewhere or left out.
# Tests used:
# Experiment in all cases: glycan array binding signal (z-score within array); higher = stronger binding
# Settings in all cases: glycan notation: IUPAC condensed, linker removed
# [1] = target: Gal(b1-4)GlcNAc(b1-3)Gal(b1-4)GlcNAc(b1-3)Gal(b1-4)GlcNAc(b1-3)Gal(b1-4)GlcNAc(b1-2)Man(a1-3)[Gal(b1-4)GlcNAc(b1-3)Gal(b1-4)GlcNAc(b1-3)Gal(b1-4)GlcNAc(b1-3)Gal(b1-4)GlcNAc(b1-2)Man(a1-6)]Man(b1-4)GlcNAc(b1-4)[Fuc(a1-6)]GlcNAc
# Outline: (§1)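 Negative Z-scores can be read as non-binding. The Z-score is calculated within each array and then averaged across arrays of one protein sequence at different concentrations or buffers and across linkers. Arrays, 3228 in all, were curated from the Consortium for Functional Glycomics database and kept only where the protein sequence was available.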
# [2] = target: Gal(b1-4)GlcNAc(b1-3)Gal(b1-4)GlcNAc(b1-3)Gal(b1-4)GlcNAc(b1-3)Gal(b1-4)GlcNAc(b1-2)[Gal(b1-4)GlcNAc(b1-3)Gal(b1-4)GlcNAc(b1-3)Gal(b1-4)GlcNAc(b1-3)Gal(b1-4)GlcNAc(b1-6)]Man(a1-6)[Gal(b1-4)GlcNAc(b1-3)Gal(b1-4)GlcNAc(b1-3)Gal(b1-4)GlcNAc(b1-3)Gal(b1-4)GlcNAc(b1-2)Man(a1-3)]Man(b1-4)GlcNAc(b1-4)[Fuc(a1-6)]GlcNAc
# Outline: as §1
# [3] = target: Gal(b1-4)GlcNAc(b1-3)Gal(b1-4)GlcNAc(b1-3)Gal(b1-4)GlcNAc(b1-3)Gal(b1-4)GlcNAc(b1-3)Gal(b1-4)GlcNAc(b1-2)Man(a1-3)[Gal(b1-4)GlcNAc(b1-3)Gal(b1-4)GlcNAc(b1-3)Gal(b1-4)GlcNAc(b1-3)Gal(b1-4)GlcNAc(b1-3)Gal(b1-4)GlcNAc(b1-2)Man(a1-6)]Man(b1-4)GlcNAc(b1-4)GlcNAc
# Outline: as §1
# [4] = target: Gal(b1-4)GlcNAc(b1-3)Gal(b1-4)GlcNAc(b1-3)Gal(b1-4)GlcNAc(b1-3)Gal(b1-4)GlcNAc(b1-3)Gal(b1-4)GlcNAc(b1-2)Man(a1-3)[Gal(b1-4)GlcNAc(b1-3)Gal(b1-4)GlcNAc(b1-3)Gal(b1-4)GlcNAc(b1-3)Gal(b1-4)GlcNAc(b1-3)Gal(b1-4)GlcNAc(b1-2)Man(a1-6)]Man(b1-4)GlcNAc(b1-4)[Fuc(a1-6)]GlcNAc
# Outline: as §1
# [5] = target: Gal(b1-4)GlcNAc(b1-3)Gal(b1-4)GlcNAc(b1-3)Gal(b1-4)GlcNAc(b1-3)Gal(b1-4)GlcNAc(b1-3)Gal(b1-4)GlcNAc(b1-2)[Gal(b1-4)GlcNAc(b1-3)Gal(b1-4)GlcNAc(b1-3)Gal(b1-4)GlcNAc(b1-3)Gal(b1-4)GlcNAc(b1-3)Gal(b1-4)GlcNAc(b1-6)]Man(a1-6)[Gal(b1-4)GlcNAc(b1-3)Gal(b1-4)GlcNAc(b1-3)Gal(b1-4)GlcNAc(b1-3)Gal(b1-4)GlcNAc(b1-3)Gal(b1-4)GlcNAc(b1-2)Man(a1-3)]Man(b1-4)GlcNAc(b1-4)[Fuc(a1-6)]GlcNAc
# Outline: as §1
# [6] = target: Gal(b1-4)GlcNAc(b1-3)Gal(b1-4)GlcNAc(b1-3)Gal(b1-4)GlcNAc(b1-3)Gal(b1-4)GlcNAc(b1-3)Gal(b1-4)GlcNAc(b1-3)Gal(b1-4)GlcNAc(b1-2)Man(a1-3)[Gal(b1-4)GlcNAc(b1-3)Gal(b1-4)GlcNAc(b1-3)Gal(b1-4)GlcNAc(b1-3)Gal(b1-4)GlcNAc(b1-3)Gal(b1-4)GlcNAc(b1-3)Gal(b1-4)GlcNAc(b1-2)Man(a1-6)]Man(b1-4)GlcNAc(b1-4)GlcNAc
# Outline: as §1
# [7] = target: Gal(b1-4)GlcNAc(b1-3)Gal(b1-4)GlcNAc(b1-3)GalNAc
# Outline: as §1
# [8] = target: Gal(b1-4)GlcNAc(b1-3)Gal(b1-4)GlcNAc(b1-3)[Gal(b1-4)GlcNAc(b1-3)Gal(b1-4)GlcNAc(b1-6)]GalNAc
# Outline: as §1
# [9] = target: Gal(b1-4)GlcNAc(b1-3)Gal(b1-4)GlcNAc(b1-6)[Gal(b1-3)]GalNAc
# Outline: as §1
# [10] = target: Gal(b1-4)GlcNAc(b1-3)Gal(b1-4)[Fuc(a1-3)]GlcNAc(b1-3)Gal(b1-4)[Fuc(a1-3)]GlcNAc
# Outline: as §1
# [11] = target: Gal(b1-4)GlcNAc(b1-3)GalNAc
# Outline: as §1
# [12] = target: Gal(b1-4)GlcNAc(b1-3)[Fuc(a1-3)GlcNAc(b1-6)]Gal(b1-4)Glc
# Outline: as §1
# [13] = target: Gal(b1-4)GlcNAc(b1-3)[Gal(b1-4)GlcNAc(b1-6)]Gal(b1-4)GlcNAc
# Outline: as §1
# [14] = target: Gal(b1-4)GlcNAc(b1-3)[GlcNAc(b1-6)]Gal(b1-4)GlcNAc
# Outline: as §1
# [15] = target: Gal(b1-4)GlcNAc(b1-6)Gal(b1-4)GlcNAc
# Outline: as §1
# [16] = target: Gal(b1-4)GlcNAc(b1-6)GalNAc
# Outline: as §1
# [17] = target: Gal(b1-4)GlcNAc(b1-6)[Gal(b1-3)]GalNAc
# Outline: as §1
# [18] = target: Gal(b1-4)GlcNAc(b1-6)[Gal(b1-4)GlcNAc(b1-3)]GalNAc
# Outline: as §1
# [19] = target: Gal(b1-4)GlcNAc6P
# Outline: as §1
# [20] = target: Gal(b1-6)Gal
# Outline: as §1
# [21] = target: Gal3S(b1-3)GalNAc
# Outline: as §1
# [22] = target: Gal3S(b1-3)GlcNAc
# Outline: as §1
# [23] = target: Gal3S(b1-3)[Fuc(a1-4)]GlcNAc
# Outline: as §1
# [24] = target: Gal3S(b1-4)Glc
# Outline: as §1
# [25] = target: Gal3S(b1-4)Glc6S
# Outline: as §1
# [26] = target: Gal3S(b1-4)GlcNAc
# Outline: as §1
# [27] = target: Gal3S(b1-4)[Fuc(a1-3)]Glc6S
# Outline: as §1
# [28] = target: Gal3S(b1-4)[Fuc(a1-3)]GlcNAc
# Outline: as §1
# [29] = target: Gal3S(b1-4)[Fuc(a1-3)]GlcNAc6S
# Outline: as §1
# [30] = target: Gal3S4S(b1-4)GlcNAc
# Outline: as §1
# [31] = target: Gal3S6S(b1-4)GlcNAc
# Outline: as §1
# [32] = target: Gal3S6S(b1-4)GlcNAc6S
# Outline: as §1
# [33] = target: Gal4S(b1-4)GlcNAc
# Outline: as §1
# [34] = target: Gal4S6S(b1-4)GlcNAc
# Outline: as §1
# [35] = target: Gal6P(b1-4)GlcNAc
# Outline: as §1
# [36] = target: Gal6S(b1-3)GlcNAc
# Outline: as §1
# [37] = target: Gal6S(b1-3)GlcNAc6S
# Outline: as §1
# [38] = target: Gal6S(b1-4)Glc
# Outline: as §1
binder,measurement,setting,value
PX14404-bvu-534-26-534 (Bacteroides vulgatus) (protein) EDPRGKLTPENFFSTQDELNMSIYALYQKVNLSQVYTNMQLPQWQGDDITTNPGSNKQPAAEMDKFAAANNNKGVKDAWNMHYAIVKAANLIIQGASKTPTTQDEINIALGQAKFWRAYAYFTLVRLWGPLPMNLDNVNDDYTKPLSPVEEVYGHIVQDLTEAEAVLPTGYSGSPRFLNGVNVYVTRQAAKSTLAAVYMAMAGWPMNKTEYYAKAAEKAKEVIEGVNRGEYEYKLDKDYKDVYAMSNNYNNETVLGINYSPFVDWAQDSELTSCNQFESLGGWGDAWGEIRFWKEFPDGPRKDATYDPKIRLKDGTLVDWWELKEDGTPVVPEHHPMFSIFSVNWDPASKVNTSAPYDYTKPASQNMCNDHRHRIIRYSEVLLWYAEAKARTGQTDELAFKCLNDVRERAGLEPLTGLSADDLAEAAYKEHGWEVAGYWVALVTRRADQFRMNRLKDTFKERAENTAVEVADGILVKESVEYTNRTWSDNLMYLPYPDMDSQKNPNLVR,glycan array binding signal (z-score),[1],-0.463
same,glycan array binding signal (z-score),[2],1.17
same,glycan array binding signal (z-score),[3],-0.664
same,glycan array binding signal (z-score),[4],0.247
same,glycan array binding signal (z-score),[5],0.462
same,glycan array binding signal (z-score),[6],0.739
same,glycan array binding signal (z-score),[7],-0.874
same,glycan array binding signal (z-score),[8],-0.105
same,glycan array binding signal (z-score),[9],4.7
same,glycan array binding signal (z-score),[10],0.283
same,glycan array binding signal (z-score),[11],-0.885
same,glycan array binding signal (z-score),[12],-0.519
same,glycan array binding signal (z-score),[13],-0.831
same,glycan array binding signal (z-score),[14],-0.89
same,glycan array binding signal (z-score),[15],-0.548
same,glycan array binding signal (z-score),[16],-0.624
same,glycan array binding signal (z-score),[17],-0.167
same,glycan array binding signal (z-score),[18],0.13
same,glycan array binding signal (z-score),[19],-0.926
same,glycan array binding signal (z-score),[20],-0.531
same,glycan array binding signal (z-score),[21],0.163
same,glycan array binding signal (z-score),[22],0.469
same,glycan array binding signal (z-score),[23],-0.32
same,glycan array binding signal (z-score),[24],1.42
same,glycan array binding signal (z-score),[25],0.715
same,glycan array binding signal (z-score),[26],0.66
same,glycan array binding signal (z-score),[27],1.84
same,glycan array binding signal (z-score),[28],0.687
same,glycan array binding signal (z-score),[29],1.45
same,glycan array binding signal (z-score),[30],1.5
same,glycan array binding signal (z-score),[31],0.039
same,glycan array binding signal (z-score),[32],1.17
same,glycan array binding signal (z-score),[33],-0.365
same,glycan array binding signal (z-score),[34],-0.083
same,glycan array binding signal (z-score),[35],-1.18
same,glycan array binding signal (z-score),[36],0.074
same,glycan array binding signal (z-score),[37],-1.01
same,glycan array binding signal (z-score),[38],1.21

# Some of the entries so far, bar-delimited.
binder | measurement | setting | value
PX14404-bvu-534-26-534 (Bacteroides vulgatus) (protein) EDPRGKLTPENFFSTQDELNMSIYALYQKVNLSQVYTNMQLPQWQGDDITTNPGSNKQPAAEMDKFAAANNNKGVKDAWNMHYAIVKAANLIIQGASKTPTTQDEINIALGQAKFWRAYAYFTLVRLWGPLPMNLDNVNDDYTKPLSPVEEVYGHIVQDLTEAEAVLPTGYSGSPRFLNGVNVYVTRQAAKSTLAAVYMAMAGWPMNKTEYYAKAAEKAKEVIEGVNRGEYEYKLDKDYKDVYAMSNNYNNETVLGINYSPFVDWAQDSELTSCNQFESLGGWGDAWGEIRFWKEFPDGPRKDATYDPKIRLKDGTLVDWWELKEDGTPVVPEHHPMFSIFSVNWDPASKVNTSAPYDYTKPASQNMCNDHRHRIIRYSEVLLWYAEAKARTGQTDELAFKCLNDVRERAGLEPLTGLSADDLAEAAYKEHGWEVAGYWVALVTRRADQFRMNRLKDTFKERAENTAVEVADGILVKESVEYTNRTWSDNLMYLPYPDMDSQKNPNLVR | glycan array binding signal (z-score) | [31] | 0.039
same | glycan array binding signal (z-score) | [32] | 1.17

# Reference: the supplement of paper PMC8728848
